Values are relative to the signal before dosing, not to a vehicle control; the signal also falls without drug.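 Fibroblast labels name human fibroblasts: mostly primary ones from tissues such as uterus (C12385, HUF), lung (H6013), bone (Hs27A), adrenal (HADF) and skin (WS1), plus mammary HMF and breast cancer-associated Hs343T. The cancer cells are basal-like or mesenchymal-like triple-negative breast cancer lines. The paper calls a changed response a hit when it shifts by more than 3x the replicate standard deviation. The tissue of the other fibroblasts is not given here.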
Tested on: HCC1143
Test: relative JC-1 red fluorescence (viability) vs pre-drug, coculture with fibroblast (fraction); higher = more viable cancer cells
Method: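 JC-1 labelled TNBC cells cocultured 1:1 (1,500 cells each) with CellTrace Violet stained primary or stromal fibroblasts in 384-well plates in FluoroBrite medium, treated with one of 42 anticancer drugs at 0.1, 1, 10 or 100 uM. JC-1 red fluorescence (mitochondrial integrity in cancer cells only) was read by plate reader every 8 h for 72 h. Values are normalised to each well's pre-drug value. The stock of one drug was tenfold lower, so its dose labels may be too high.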

O=C(O)CCCc1ccc(N(CCCl)CCCl)cc1 [Chlorambucil]
relative JC-1 red fluorescence
Details | 8 h | 16 h | 24 h | 32 h | 40 h | 48 h | 56 h | 64 h | 72 h
0.1 µM, coculture fibroblast: C12385 | 0.841 | 0.809 | 0.767 | 0.714 | 0.661 | 0.638 | 0.62 | 0.591 | 0.584
0.1 µM, coculture fibroblast: H6013 | 0.781 | 0.734 | 0.702 | 0.692 | 0.638 | 0.63 | 0.595 | 0.585 | 0.542
0.1 µM, coculture fibroblast: H6019 | 0.809 | 0.73 | 0.6795 | 0.604 | 0.56 | 0.553 | 0.497 | 0.4599 | 0.425
0.1 µM, coculture fibroblast: H6076 | 0.809 | 0.779 | 0.737 | 0.699 | 0.651 | 0.637 | 0.616 | 0.594 | 0.602
0.1 µM, coculture fibroblast: H6231 | 0.8115 | 0.801 | 0.733 | 0.672 | 0.632 | 0.604 | 0.572 | 0.543 | 0.534
0.1 µM, coculture fibroblast: HADF | 0.73 | 0.681 | 0.659 | 0.683 | 0.604 | 0.595 | 0.581 | 0.568 | 0.552
0.1 µM, coculture fibroblast: HCFa | 0.807 | 0.748 | 0.713 | 0.705 | 0.637 | 0.619 | 0.576 | 0.548 | 0.523
0.1 µM, coculture fibroblast: HCPF | 0.823 | 0.849 | 0.812 | 0.738 | 0.738 | 0.715 | 0.681 | 0.652 | 0.648
0.1 µM, coculture fibroblast: HHSteC | 0.8548 | 0.809 | 0.776 | 0.7431 | 0.6842 | 0.669 | 0.6348 | 0.612 | 0.5639
0.1 µM, coculture fibroblast: HMF | 0.7772 | 0.811 | 0.733 | 0.636 | 0.634 | 0.601 | 0.566 | 0.53 | 0.504
0.1 µM, coculture fibroblast: HPFa | 0.87 | 0.788 | 0.759 | 0.657 | 0.608 | 0.589 | 0.536 | 0.494 | 0.464
0.1 µM, coculture fibroblast: HUF | 0.838 | 0.743 | 0.678 | 0.598 | 0.551 | 0.533 | 0.486 | 0.461 | 0.437
0.1 µM, coculture fibroblast: Hs5 | 0.8436 | 0.862 | 0.829 | 0.813 | 0.758 | 0.736 | 0.708 | 0.677 | 0.664
0.1 µM, coculture fibroblast: Hs27A | 0.756 | 0.737 | 0.716 | 0.732 | 0.64 | 0.649 | 0.614 | 0.597 | 0.55
0.1 µM, coculture fibroblast: Hs343T | 0.798 | 0.781 | 0.736 | 0.693 | 0.638 | 0.615 | 0.575 | 0.557 | 0.539
0.1 µM, coculture fibroblast: WS1 | 0.8147 | 0.751 | 0.71 | 0.643 | 0.589 | 0.564 | 0.519 | 0.497 | 0.48
1 µM, coculture fibroblast: C12385 | 0.8509 | 0.7482 | 0.667 | 0.596 | 0.528 | 0.466 | 0.42 | 0.374 | 0.345
1 µM, coculture fibroblast: H6013 | 0.774 | 0.683 | 0.639 | 0.633 | 0.553 | 0.538 | 0.504 | 0.485 | 0.458
1 µM, coculture fibroblast: H6019 | 0.792 | 0.681 | 0.628 | 0.561 | 0.505 | 0.467 | 0.414 | 0.361 | 0.326
1 µM, coculture fibroblast: H6076 | 0.801 | 0.8375 | 0.7567 | 0.691 | 0.649 | 0.62 | 0.578 | 0.551 | 0.538
1 µM, coculture fibroblast: H6231 | 0.821 | 0.774 | 0.683 | 0.637 | 0.582 | 0.555 | 0.522 | 0.482 | 0.461
1 µM, coculture fibroblast: HADF | 0.721 | 0.639 | 0.599 | 0.6008 | 0.494 | 0.465 | 0.428 | 0.394 | 0.378
1 µM, coculture fibroblast: HCFa | 0.825 | 0.748 | 0.731 | 0.704 | 0.615 | 0.587 | 0.541 | 0.518 | 0.507
1 µM, coculture fibroblast: HCPF | 0.8 | 0.819 | 0.747 | 0.635 | 0.64 | 0.604 | 0.557 | 0.526 | 0.507
1 µM, coculture fibroblast: HHSteC | 0.85 | 0.784 | 0.743 | 0.711 | 0.647 | 0.623 | 0.577 | 0.546 | 0.502
1 µM, coculture fibroblast: HMF | 0.807 | 0.844 | 0.744 | 0.64 | 0.626 | 0.593 | 0.548 | 0.508 | 0.472
1 µM, coculture fibroblast: HPFa | 0.9119 | 0.825 | 0.77 | 0.677 | 0.589 | 0.545 | 0.48002 | 0.4312 | 0.3899
1 µM, coculture fibroblast: HUF | 0.898 | 0.818 | 0.759 | 0.686 | 0.6345 | 0.6072 | 0.559 | 0.523 | 0.488
1 µM, coculture fibroblast: Hs5 | 0.8485 | 0.817 | 0.783 | 0.772 | 0.692 | 0.67 | 0.63 | 0.605 | 0.6
1 µM, coculture fibroblast: Hs27A | 0.726 | 0.637 | 0.601 | 0.617 | 0.484 | 0.463 | 0.41 | 0.366 | 0.336
1 µM, coculture fibroblast: Hs343T | 0.801 | 0.8694 | 0.7617 | 0.647 | 0.654 | 0.604 | 0.553 | 0.519 | 0.481
1 µM, coculture fibroblast: WS1 | 0.8228 | 0.721 | 0.65 | 0.568 | 0.498 | 0.458 | 0.41 | 0.371 | 0.343
10 µM, coculture fibroblast: C12385 | 0.852 | 0.802 | 0.752 | 0.706 | 0.661 | 0.622 | 0.584 | 0.541 | 0.518
10 µM, coculture fibroblast: H6013 | 0.737 | 0.651 | 0.609 | 0.588 | 0.516 | 0.501 | 0.463 | 0.442 | 0.416
10 µM, coculture fibroblast: H6019 | 0.8047 | 0.712 | 0.655 | 0.599 | 0.541 | 0.516 | 0.467 | 0.422 | 0.387
10 µM, coculture fibroblast: H6076 | 0.8059 | 0.814 | 0.76 | 0.714 | 0.677 | 0.656 | 0.618 | 0.588 | 0.585
10 µM, coculture fibroblast: H6231 | 0.843 | 0.794 | 0.744 | 0.685 | 0.643 | 0.614 | 0.577 | 0.549 | 0.528
10 µM, coculture fibroblast: HADF | 0.752 | 0.705 | 0.675 | 0.667 | 0.591 | 0.571 | 0.538 | 0.514 | 0.492
10 µM, coculture fibroblast: HCFa | 0.7872 | 0.712 | 0.655 | 0.655 | 0.546 | 0.511 | 0.457 | 0.4159 | 0.399
10 µM, coculture fibroblast: HCPF | 0.789 | 0.819 | 0.739 | 0.612 | 0.627 | 0.584 | 0.538 | 0.504 | 0.479
10 µM, coculture fibroblast: HHSteC | 0.8095 | 0.746 | 0.696 | 0.646 | 0.572 | 0.542 | 0.494 | 0.46 | 0.412
10 µM, coculture fibroblast: HMF | 0.796 | 0.846 | 0.787 | 0.722 | 0.724 | 0.698 | 0.674 | 0.645 | 0.616
10 µM, coculture fibroblast: HPFa | 0.928 | 0.884 | 0.892 | 0.818 | 0.77 | 0.755 | 0.706 | 0.663 | 0.627
10 µM, coculture fibroblast: HUF | 0.869 | 0.772 | 0.697 | 0.611 | 0.548 | 0.492 | 0.44 | 0.391 | 0.354
10 µM, coculture fibroblast: Hs5 | 0.829 | 0.85 | 0.7829 | 0.7395 | 0.67 | 0.647 | 0.62 | 0.578 | 0.58
10 µM, coculture fibroblast: Hs27A | 0.746 | 0.67 | 0.62 | 0.643 | 0.507 | 0.488 | 0.447 | 0.425 | 0.438
10 µM, coculture fibroblast: Hs343T | 0.8303 | 0.893 | 0.835 | 0.725 | 0.731 | 0.694 | 0.637 | 0.605 | 0.559
10 µM, coculture fibroblast: WS1 | 0.829 | 0.755 | 0.6948 | 0.615 | 0.549 | 0.492 | 0.438 | 0.388 | 0.355
100 µM, coculture fibroblast: C12385 | 0.853 | 0.7604 | 0.6929 | 0.625 | 0.552 | 0.497 | 0.454 | 0.399 | 0.366
100 µM, coculture fibroblast: H6013 | 0.78 | 0.702 | 0.656 | 0.644 | 0.56 | 0.545 | 0.503 | 0.473 | 0.445
100 µM, coculture fibroblast: H6019 | 0.8296 | 0.73531 | 0.66806 | 0.593 | 0.534 | 0.485 | 0.436 | 0.379 | 0.339
100 µM, coculture fibroblast: H6076 | 0.799 | 0.7916 | 0.712 | 0.633 | 0.595 | 0.566 | 0.527 | 0.498 | 0.492
100 µM, coculture fibroblast: H6231 | 0.811 | 0.805 | 0.695 | 0.586 | 0.5982 | 0.548 | 0.499 | 0.456 | 0.425
100 µM, coculture fibroblast: HADF | 0.761 | 0.693 | 0.664 | 0.671 | 0.575 | 0.551 | 0.506 | 0.476 | 0.452
100 µM, coculture fibroblast: HCFa | 0.794 | 0.695 | 0.63084 | 0.6134 | 0.508 | 0.465 | 0.414 | 0.366 | 0.339
100 µM, coculture fibroblast: HCPF | 0.795 | 0.809 | 0.717 | 0.587 | 0.604 | 0.563 | 0.51 | 0.477 | 0.448
100 µM, coculture fibroblast: HHSteC | 0.817 | 0.716 | 0.666 | 0.621 | 0.539 | 0.513 | 0.466 | 0.424 | 0.365
100 µM, coculture fibroblast: HMF | 0.798 | 0.841 | 0.751 | 0.643 | 0.648 | 0.609 | 0.558 | 0.523 | 0.48
100 µM, coculture fibroblast: HPFa | 0.9037 | 0.812 | 0.75387 | 0.668 | 0.594 | 0.546 | 0.486 | 0.436 | 0.393
100 µM, coculture fibroblast: HUF | 0.894 | 0.8 | 0.725 | 0.636 | 0.573 | 0.538 | 0.472 | 0.419 | 0.38
100 µM, coculture fibroblast: Hs5 | 0.8322 | 0.809 | 0.758 | 0.713 | 0.655 | 0.619 | 0.578 | 0.554 | 0.533
100 µM, coculture fibroblast: Hs27A | 0.726 | 0.639 | 0.585 | 0.606 | 0.486 | 0.469 | 0.439 | 0.417 | 0.425
100 µM, coculture fibroblast: Hs343T | 0.79 | 0.8472 | 0.738 | 0.613 | 0.613 | 0.562 | 0.503 | 0.473 | 0.418
100 µM, coculture fibroblast: WS1 | 0.826 | 0.716 | 0.641 | 0.566 | 0.507 | 0.462 | 0.412 | 0.3585 | 0.316
